These are yes or no findings as the source states them, for the method shown. Binding seen in cells or lysates may run through a third protein. A yes stands for co-enrichment or nearness to the bait. Other partners may have been found.
Target: Nipah virus attachment (G) glycoprotein fused to Myc-TurboID (Nipah virus) (UniProt Q9IH62)
Test: proximity labelling

Chains of the proteins cited; added tags and fusions are not shown.
UniProt Q9IH62: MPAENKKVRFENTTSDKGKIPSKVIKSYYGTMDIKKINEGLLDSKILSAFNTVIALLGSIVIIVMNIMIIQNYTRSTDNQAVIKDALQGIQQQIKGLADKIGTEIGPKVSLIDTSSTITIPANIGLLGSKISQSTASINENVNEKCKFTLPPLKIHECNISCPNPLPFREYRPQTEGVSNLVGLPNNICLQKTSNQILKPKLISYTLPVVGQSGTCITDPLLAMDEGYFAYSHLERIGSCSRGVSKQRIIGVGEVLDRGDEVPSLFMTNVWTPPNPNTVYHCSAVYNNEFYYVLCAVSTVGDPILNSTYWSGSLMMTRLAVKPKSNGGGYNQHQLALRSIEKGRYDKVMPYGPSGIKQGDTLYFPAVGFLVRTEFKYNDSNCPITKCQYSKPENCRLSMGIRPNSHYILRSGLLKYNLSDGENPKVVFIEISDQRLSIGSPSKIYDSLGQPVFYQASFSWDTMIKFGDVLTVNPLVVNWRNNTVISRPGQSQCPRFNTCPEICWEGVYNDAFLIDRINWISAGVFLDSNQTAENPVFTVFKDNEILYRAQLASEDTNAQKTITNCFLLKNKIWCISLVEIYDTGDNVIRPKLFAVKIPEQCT

B1: Ephrin B3 (receptor, UniProt Q15768 28-340)
chain: LSLEPVYWNSANKRFQAEGGYVLYPQIGDRLDLLCPRARPPGPHSSPNYEFYKLYLVGGAQGRRCEAPPAPNLLLTCDRPDLDLRFTIKFQEYSPNLWGHEFRSHHDYYIIATSDGTREGLESLQGGVCLTRGMKVLLRVGQSPRGGAVPRKPVSEMPMERDRGAAHSLEPGKENLPGDPTSNATSRGAEGPLPPPSMPAVAGAAGGLALLLLGVAGAGGAMCWRRRRAKPSESRHPGPGSFGRGGSLGLGGGGGMGPREAEPGELGIALRGGGAADPPFCPHYEKVSGDYGHPVYIVQDGPPQSPPNIYYKV
binding: binds

— paper PMC11012870
